According to patent US20090291088A1, “THERAPEUTIC COMBINATIONS OF ANTI-IGF-1R ANTIBODIES AND OTHER COMPOUNDS” (Biogen Idec MA Inc., priority 2008, published 2009):
Results are given in words; binding and its absence hold for the method and conditions named. Some entries that bind do so weakly or less than the wild type. Values belong to the binder of their own block, whether it stands above or below them.

Amino acid sequences for entries named in this document (tags omitted). A change or cut given only in a name is not applied to a line headed by its entry.
UniProt P08069: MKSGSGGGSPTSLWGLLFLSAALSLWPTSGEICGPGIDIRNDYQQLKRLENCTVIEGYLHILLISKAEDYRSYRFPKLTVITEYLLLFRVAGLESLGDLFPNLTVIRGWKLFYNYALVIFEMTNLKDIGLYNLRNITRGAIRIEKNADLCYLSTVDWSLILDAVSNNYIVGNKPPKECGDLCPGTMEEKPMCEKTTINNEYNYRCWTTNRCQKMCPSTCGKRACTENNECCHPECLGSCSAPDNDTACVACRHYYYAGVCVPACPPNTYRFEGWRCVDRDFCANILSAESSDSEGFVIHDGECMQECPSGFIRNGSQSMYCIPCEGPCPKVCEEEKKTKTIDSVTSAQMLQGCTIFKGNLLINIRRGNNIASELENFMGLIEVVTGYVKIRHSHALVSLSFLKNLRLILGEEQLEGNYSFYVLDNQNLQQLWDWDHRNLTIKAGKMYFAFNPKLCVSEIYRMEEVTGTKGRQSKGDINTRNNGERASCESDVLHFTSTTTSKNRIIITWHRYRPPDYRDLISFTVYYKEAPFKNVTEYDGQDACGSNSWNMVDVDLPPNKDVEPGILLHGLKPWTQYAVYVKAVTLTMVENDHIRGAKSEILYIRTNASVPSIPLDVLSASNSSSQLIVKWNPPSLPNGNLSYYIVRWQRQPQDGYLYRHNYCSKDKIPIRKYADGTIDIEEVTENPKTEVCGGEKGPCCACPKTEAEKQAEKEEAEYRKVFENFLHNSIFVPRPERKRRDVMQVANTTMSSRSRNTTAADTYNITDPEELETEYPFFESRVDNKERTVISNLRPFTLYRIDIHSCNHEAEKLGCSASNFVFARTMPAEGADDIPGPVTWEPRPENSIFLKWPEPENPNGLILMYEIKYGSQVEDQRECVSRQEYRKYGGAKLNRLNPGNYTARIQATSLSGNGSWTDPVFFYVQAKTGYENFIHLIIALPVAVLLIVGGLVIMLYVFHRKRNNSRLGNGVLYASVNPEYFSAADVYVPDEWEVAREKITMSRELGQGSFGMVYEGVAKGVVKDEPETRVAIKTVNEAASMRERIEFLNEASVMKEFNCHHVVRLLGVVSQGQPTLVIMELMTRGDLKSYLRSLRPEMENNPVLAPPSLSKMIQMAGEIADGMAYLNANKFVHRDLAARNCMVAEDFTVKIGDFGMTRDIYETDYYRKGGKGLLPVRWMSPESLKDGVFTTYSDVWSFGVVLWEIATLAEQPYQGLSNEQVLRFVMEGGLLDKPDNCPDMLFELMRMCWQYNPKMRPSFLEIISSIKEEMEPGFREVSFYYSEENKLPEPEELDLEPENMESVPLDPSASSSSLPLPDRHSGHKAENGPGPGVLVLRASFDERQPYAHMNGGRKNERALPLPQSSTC

Assays:
[1] = molecular target: IGF-1R (soluble, construct not stated) (human) (UniProt P08069); assay: ELISA, supernatant of 293E cells
[2] = molecular target: human IGF-1R expressed on cells (human) (UniProt P08069); assay: flow cytometry on MCF-7 cells
[3] = molecular target: human IGF-1R expressed on cells (human) (UniProt P08069); assay: flow cytometry, MCF-7 and IGF-1R/3T3 cells
[4] = molecular target: human IGF-1R expressed on cells (human) (UniProt P08069); assay: flow cytometry on IGF-1R/3T3 transfectants and parental 3T3 cells
[5] = molecular target: hIGF-1R-Fc mutant SD019 (E739W, L741F) (human) (UniProt P08069); assay: SPR, Fab over captured mutant; NE = KD within 2.5-fold of WT hIGF-1R-Fc

binding [1]: binds
B1: M12-G04.G4.P (antibody, human IgG4, V domains shown)
VH: EVQLLESGGGLVQPGGSLRLSCAASGFTFSKYTMHWVRQAPGKGLEWVSSIVSSGGWTDYADSVKGRFTISRDNSKNTLYLQMNSLRAEDTAVYYCARDRSIAAAGTGWSVSFVDWFDPWGQGTLVTVSS
VL: DIQMTQSPLSLSASVGDRVTITCRASQSINGYLNWYQQKPGKAPNLLIYATSSLQSGVPSRFSGSGSGTDFTLTISSLQPEDFATYYCQQSYSTPPYTFGQGTKLEIK

binding [2]: binds | binding [3]: binds | binding [4]: binds
B2: M14-C03.G4.P.agly (antibody, human IgG4 S228P, kappa, V domains shown)
VH: EVQLLESGGGLVQPGGSLRLSCAASGFTFSKYMMSWVRQAPGKGLEWVSYISPSGGLTWYADSVKGRFTISRDNSKNTLYLQMNSLRAEDTAVYYCARDGARGYGMDVWGQGTTVTVSS
VL: DIQMTQSPATLSLSPGERATLSCRASQSVSSYLAWYQQKPGQAPRLLIYDASNRATGIPARFSGSGSGTDFTLTISSLEPEDFAVYYCQQRSNWPPEVTFGPGTKVDIKR

binding [1]: binds
B3: M14-C03.G4.P (antibody, human IgG4, V domains shown)
VH: B2 VH
VL: DIQMTQSPATLSLSPGERATLSCRASQSVSSYLAWYQQKPGQAPRLLIYDASNRATGIPARFSGSGSGTDFTLTISSLEPEDFAVYYCQQRSNWPPEVTFGPGTKVDIK

binding [5]: binds
B4: M14-C03 Fab (Fab, V domains shown)
VH: B2 VH
VL: B3 VL
